System: hair cells in mouse cochlear explants
Conditions: explant

Row | Compound | Therapeutic Index LD50/IC50
1 | CC[C@H](CO)Nc1nc(NCc2ccccc2O)c2ncn(C(C)C)c2n1 [Compound 9, Olomoucine II] | 11
2 | NS(=O)(=O)c1ccc(N/N=C2\C(=O)Nc3cc(Br)ccc32)cc1 [Compound 12, CDK2 inhibitor II] | 12
